{"source": "PubChem BioAssay AID2685", "about": "(National Center for Advancing Translational Sciences (NCATS), 2010)", "note": "Out of some 320,000 compounds screened, about 2,100 (0.66%) were called active. The shares of active, inactive and inconclusive entries below differ from those in the screen. Calls follow the shape of the dose curve; as a rule, active = well fitted inhibition curve with a large enough effect in the signal ratio, with a control signal flat (not every such curve was filed as active); inconclusive = small, poorly fitted or top-dose-only effect, or effect the other way, or a change in a side signal; inactive = flat fitted curve, though single readings scatter; the % refers to the signal ratio. Potencies beside an inconclusive call are fits to weak or partial responses and may not hold up."}
{"experiment": "qHTS Assay for Lipid Storage Modulators in Drosophila S3 Cells; also: potency is read from the fitted curve at half-maximal effect; as to lipid storage change, negative = inhibition: % is scaled to controls: 0 for no effect and ±100 for the full control effect", "conditions": "BODIPY lipid droplet fluorescence, 18-24 h, cells fed with added oleic acid; lipid storage change, negative = inhibition: at 46.1 µM (top of the series) unless noted", "in_short": "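Laser-scanning cytometry quantifies lipid droplet accumulation (500–530 nm total intensity; droplet/cell object ratio) in oleic acid-fed (400 uM added) Drosophila S3 cells treated with a concentration series. 20 uM Triacsin C defined 100% inhibition.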"}
{"molecule": "O=C(O)C(O)(c1ccccc1)C1CCCC1", "note": "(centres undefined)", "lipid storage change, negative = inhibition": "inconclusive: 48.4%"}
{"molecule": "O=C1Nc2ccc(Br)cc2C(c2ccc(Cl)cc2)=NC1O", "note": "(centres undefined)", "lipid storage change, negative = inhibition": "inconclusive: -7.24%"}
{"molecule": "COC(=O)C1=C(c2ccc(F)cc2F)C[C@@H]2CC[C@H]1N2C(=O)NCC1CC1", "Potency": "inconclusive: 6.51 µM [activator, single point]"}
{"molecule": "Cc1ccc(NC(=O)CCNC(=O)N2C[C@H]3C[C@@H](C2)c2cccc(=O)n2C3)c(C)c1", "lipid storage change, negative = inhibition": "inconclusive: 33%"}
{"molecule": "CCOc1ccccc1C1SCC(=O)Nc2c1c(=O)[nH]n2C(CC)CC", "note": "(centres undefined)", "Potency": "inconclusive: 14.6 µM [rising, single point]"}
{"molecule": "CCN(CC)C(=O)c1ccc(NC(=O)c2cccc(F)c2)cc1", "lipid storage change, negative = inhibition": "inconclusive: -4.94%"}
{"molecule": "CC(=NCC1CCCO1)c1c(O)n(C2CCCCC2)c(=O)[nH]c1=O", "note": "(centres undefined)", "lipid storage change, negative = inhibition": "inconclusive: 25.8%"}
{"molecule": "O=C1CC(=O)N(Cc2ccccc2)C(=S)N1", "lipid storage change, negative = inhibition": "inconclusive: -16.9%"}
{"molecule": "O=C(CN1CC=C(c2ccccc2)CC1)Nc1cc(Cl)ccc1Cl", "Potency": "inconclusive: 11.6 µM [activator, partial curve]"}
{"molecule": "CC/C(=N\\N1CCCCCC1)c1c(O)n(-c2ccc(C)cc2)c(=O)[nH]c1=O", "Potency": "inconclusive: 23.1 µM [falling, partial curve]"}
{"molecule": "NCCc1ccc(S(N)(=O)=O)cc1", "Potency": "inconclusive: 0.0046 µM [falling, full curve, poor fit]"}
{"molecule": "Cc1cc(OCC(=O)N2CCC(C(=O)NCC(C)C)CC2)c2c3c(c(=O)oc2c1)CCCC3", "lipid storage change, negative = inhibition": "inconclusive: 27.8%"}
{"molecule": "O=C1NC(=O)C(=Cc2ccc(OCCOc3ccc([N+](=O)[O-])cc3)cc2)C(=O)N1", "lipid storage change, negative = inhibition": "inconclusive: -9.01%"}
{"molecule": "O=C1C(=O)c2cccc3cccc1c23", "lipid storage change, negative = inhibition": "inconclusive: -37.7%"}
{"molecule": "CCCCn1c(O)c(C=Nc2c(C)n(C)n(-c3ccccc3)c2=O)c(=O)[nH]c1=O", "lipid storage change, negative = inhibition": "inconclusive: -104%"}
{"molecule": "CC1(C)C2CC=C(CN3CCOCC3)C1C2", "note": "(centres undefined)", "lipid storage change, negative = inhibition": "inactive"}
{"molecule": "CN1C(=O)N(C)C(=O)C2(Cc3c(nc4ccccn4c3=O)N3CCC(Cc4ccccc4)CC32)C1=O", "note": "(centres undefined)", "Potency": "inconclusive: 0.0052 µM [activator, full curve, poor fit]"}
{"molecule": "O=c1[nH]c(=O)n(-c2ccccc2)c(O)c1/C=C/C=Nc1ccccc1", "lipid storage change, negative = inhibition": "inactive"}
{"molecule": "Fc1ccc(C(OCCN2CCCC2)c2ccc(F)cc2)cc1", "Potency": "inconclusive: 0.0052 µM [falling, full curve, poor fit]"}
{"molecule": "Cc1ccc(S(=O)(=O)N(C)c2ccc(C(=O)NCC3(N(C)C)CCCCC3)cc2)cc1", "Potency": "inconclusive: 0.92 µM [activator, partial curve, poor fit]"}
{"molecule": "N#Cc1ccc(NC(=O)CN2C(=O)NC3(CCCCCCC3)C2=O)cc1Cl", "lipid storage change, negative = inhibition": "inconclusive: -58.5%"}
{"molecule": "Cc1ccc(/C=C2\\C(=O)NC(=O)N(CCc3ccc(F)cc3)C2=O)o1", "lipid storage change, negative = inhibition": "inconclusive: -24.5%"}
{"molecule": "O=C(CF)NC(NC(=S)Nc1ccccc1O)C(Cl)(Cl)Cl", "note": "(centres undefined)", "lipid storage change, negative = inhibition": "inconclusive: -12.9%"}
{"molecule": "CCOC(=O)C1CCN(C=C2C(=O)N(C)C(=S)N(C)C2=O)CC1", "Potency": "inconclusive: 16.4 µM [activator, partial curve]"}
{"molecule": "N#CC(C#N)=C(C#N)c1ccc(Nc2ccccc2)cc1", "Potency": "inconclusive: 16.4 µM [activator, partial curve]"}
{"molecule": "CCCCNC(=O)Nc1ccc(C(O)(C(=O)OC)C(F)(F)F)cc1", "note": "(centres undefined)", "Potency": "inconclusive: 0.517 µM [falling, full curve]"}
{"molecule": "Cc1cc2oc(=O)cc(-c3cc4ccccc4o3)c2cc1OC(=O)N(C)C", "Potency": "active: 18.4 µM"}
{"molecule": "CCN1C(=O)NC(=O)/C(=C/c2cc(C)n(-c3sc(C)c(C)c3C#N)c2C)C1=O", "lipid storage change, negative = inhibition": "inconclusive: 21.7%"}
{"molecule": "CCN(CC)c1ccc(C=C2C(=O)N(C)C(=S)N(C)C2=O)o1", "Potency": "inconclusive: 0.366 µM [falling, full curve]"}
{"molecule": "O=c1[nH]c(=S)n(C2CC2)c(O)c1C=Nc1ccc2c(c1)OCO2", "lipid storage change, negative = inhibition": "inconclusive: 31.5%"}
{"molecule": "CCOc1cc2c(cc1OCC)-n1cccc1C(c1ccc(OC)cc1)NC2", "note": "(centres undefined)", "lipid storage change, negative = inhibition": "inconclusive: -53.7%"}
{"molecule": "COc1ccc(CCC(=O)N2CCC3(CC2)OCCO3)cc1", "lipid storage change, negative = inhibition": "inconclusive: -94.1%"}
{"molecule": "COC(=O)C1=C(c2ccc(OC(F)(F)F)cc2)C[C@@H]2CC[C@H]1N2C(=O)NCc1cccc2ccccc12", "lipid storage change, negative = inhibition": "inconclusive: -37.2%"}
{"molecule": "Cc1c(P(=S)(c2ccccc2)c2ccccc2)[n+]2ccccc2n1C", "lipid storage change, negative = inhibition": "inconclusive: 32.1%"}
{"molecule": "COc1cccc(N2C(=O)NC(=O)/C(=C\\c3ccc([N+](=O)[O-])s3)C2=O)c1", "lipid storage change, negative = inhibition": "inconclusive: -33.4%"}
{"molecule": "Cc1ccc(CN2C(=O)CN=C(c3ccccc3)c3ccccc32)cc1", "Potency": "active: 10.3 µM"}
{"molecule": "CCOC(=O)C1=C(N)OC2=C(C(=O)CC(C)(C)C2)C12C(=O)Nc1ccccc12", "note": "(centres undefined)", "lipid storage change, negative = inhibition": "inconclusive: 9.04%"}
{"molecule": "Clc1cc(Cl)c(-c2cc(Cl)c(Cl)cc2Cl)cc1Cl", "lipid storage change, negative = inhibition": "inconclusive: -27.9%"}
{"molecule": "O=C(CSC1c2ccccc2-c2ccccc21)N/N=C/c1ccccc1C(=O)O", "lipid storage change, negative = inhibition": "inconclusive: 0.378%"}
{"molecule": "O=C1CC(c2ccccc2)CN1", "note": "(centres undefined)", "lipid storage change, negative = inhibition": "inconclusive: -35.4%"}
{"molecule": "CN1CC(C(=O)c2ccccc2)C(c2ccccc2)C1", "note": "(centres undefined)", "lipid storage change, negative = inhibition": "inconclusive: -1.94%"}
{"molecule": "Cc1cc(O)c2c(c1)C(=O)C13C(=C2O)C(=O)[C@H]2[C@@H](O)[C@@H]1[C@H]1[C@H](O)[C@@H]3C(=O)C3=C(O)c4c(O)cc(C)cc4C(=O)C312", "note": "(some centres undefined)", "Potency": "active: 9.2 µM"}
{"molecule": "Nc1ccc(Cl)cc1C(=O)c1ccccc1", "lipid storage change, negative = inhibition": "inconclusive: -6.98%"}
{"molecule": "CCC(C)N1C(=O)/C(=C\\c2ccc(N3CCCCCC3)cc2)C(=O)NC1=S", "note": "(centres undefined)", "lipid storage change, negative = inhibition": "inconclusive: 3.95%"}
{"molecule": "O=[N+]([O-])c1ccc(N2CCCC2)c2ccncc12", "lipid storage change, negative = inhibition": "inconclusive: 32.6%"}
{"molecule": "COC(=O)Cn1cc(/C=C2\\C(=O)NC(=O)N(c3ccc(OC)cc3)C2=O)c2ccccc21", "lipid storage change, negative = inhibition": "inconclusive: -34.2%"}
{"molecule": "C=CCN1C(=O)/C(=C\\c2ccc(N3CCOCC3)o2)C(=O)NC1=S", "lipid storage change, negative = inhibition": "inconclusive: 14.2%"}
{"molecule": "O=C(CN1CCCCC1)c1ccccc1Cl", "Potency": "inconclusive: 29.1 µM [rising, single point]"}
{"molecule": "CCOC(=O)c1c(N)n(Cc2ccccc2)c2nc3ccccc3nc12", "lipid storage change, negative = inhibition": "inconclusive: -0.729%"}
